PubChem BioAssay AID504791, Drosophila RNAi Screening Center | 2011
The deposit covers about 23,000 reagents; below is a random part of those that have a named target and a result. Over the whole deposit, 199 (0.86%) are marked active. 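Plate-scaled ratios behind the calls are not deposited; printed light signals are raw; many rows marked increased or decreased are still called inactive.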 A plus sign joins genes that one reagent is predicted to hit. The record does not give: the direction of the score.

Aim: 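Genes whose knock-down strengthens or weakens small-RNA reporter silencing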 (primary screen)
System: Drosophila S2-derived reporter cells
Reagents: long dsRNA against Drosophila genes, about 150-250 ng dsRNA per well (siRNA assay); about 80-120 ng (miRNA assay)
Duration: about 5 days (siRNA assay); about 4 days (miRNA assay)
Treatment: copper sulfate induction of reporters: 25 µM (siRNA assay); 200 mM stated (miRNA assay), 1-2 days before reading
Detection: 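Dual luciferase assay: Renilla to firefly signal ratio in each well, scaled to the mean ratio of its plate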
Rule for the call: 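First-pass picks had plate-scaled ratios over 1.5 for the siRNA assay, over 1.6 for the miRNA assay, or under 0.6; two distinct dsRNAs had to score alike on retest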

The first 8 records, ahead of the listing:
| Gene | DRSC id | stable siRNA reporter change | miRNA reporter change | stable assay Renilla, run 1 (luminescence) | stable assay firefly, run 1 (luminescence) | Outcome |
| --- | --- | --- | --- | --- | --- | --- |
| CG12992 | DRSC19512 | – | – | 5462 | 4.93e5 | inactive |
| Alp10 | DRSC09749 | – | – | 5810 | 2.99e5 | inactive |
| CG42450 | DRSC20022 | – | – | 5483 | 3.77e5 | inactive |
| CG42450 | DRSC22751 | – | – | 4918 | 3.66e5 | inactive |
| stan | DRSC05234 | – | – | 5759 | 3.27e5 | inactive |
| stan | DRSC07697 | – | – | 6010 | 2.83e5 | inactive |
| glob3 | DRSC12261 | – | reporter ratio raised past the hit cutoff | 7943 | 4.04e5 | inactive |
| l(3)mbn | DRSC08793 | – | – | 5167 | 4.28e5 | inactive |

Results, repeating the preview:
| Gene | DRSC id | stable siRNA reporter change | miRNA reporter change | stable assay Renilla, run 1 (luminescence) | stable assay firefly, run 1 (luminescence) | Outcome |
| --- | --- | --- | --- | --- | --- | --- |
| CG12992 | DRSC19512 | – | – | 5462 | 4.93e5 | inactive |
| Alp10 | DRSC09749 | – | – | 5810 | 2.99e5 | inactive |
| CG42450 | DRSC20022 | – | – | 5483 | 3.77e5 | inactive |
| CG42450 | DRSC22751 | – | – | 4918 | 3.66e5 | inactive |
| stan | DRSC05234 | – | – | 5759 | 3.27e5 | inactive |
| stan | DRSC07697 | – | – | 6010 | 2.83e5 | inactive |
| glob3 | DRSC12261 | – | reporter ratio raised past the hit cutoff | 7943 | 4.04e5 | inactive |
| l(3)mbn | DRSC08793 | – | – | 5167 | 4.28e5 | inactive |
| CG14853 | DRSC14977 | – | – | 3671 | 3.74e5 | inactive |
| CG14853 | DRSC21528 | – | – | 7520 | 4.23e5 | inactive |
| schlank | DRSC18102 | – | – | 4812 | 3.29e5 | inactive |
| schlank | DRSC18313 | – | – | 5658 | 3.39e5 | inactive |
| cyc | DRSC11337 | – | – | 6858 | 4.38e5 | inactive |
| SC35 | DRSC02502 | reporter ratio raised past the hit cutoff | – | 5967 | 2.15e5 | inactive |
| SC35 | DRSC03425 | – | – | 7306 | 3.85e5 | inactive |
| ERp60 | DRSC07309 | reporter ratio raised past the hit cutoff | – | 38912 | 4.56e5 | inactive |
| sll | DRSC16271 | – | – | 7499 | 2.66e5 | inactive |
| pen-2 | DRSC05722 | – | – | 6879 | 3.97e5 | inactive |
| CG14050 | DRSC18594 | – | – | 6238 | 4.12e5 | inactive |
| CG13784 | DRSC00974 | – | – | 4879 | 5.15e5 | inactive |
| CG13784 | DRSC02287 | – | – | 7601 | 3.29e5 | inactive |
| nwk | DRSC10442 | – | – | 7134 | 4.23e5 | inactive |
| CG14760 | DRSC06495 | – | – | 7030 | 3.41e5 | inactive |
| CG12877 | DRSC14565 | – | reporter ratio raised past the hit cutoff | 9475 | 4.44e5 | inactive |
| CG10068 | DRSC12508 | – | – | 8114 | 3.86e5 | inactive |
| Myo31DF | DRSC03376 | – | – | 7290 | 6.31e5 | inactive |
| Myo31DF | DRSC22702 | – | – | 3663 | 2.91e5 | inactive |
| Cpr62Bb | DRSC08404 | – | – | 5816 | 3.55e5 | inactive |
| CG17648 | DRSC00508 | – | – | 8043 | 4.38e5 | inactive |
| CG16786 | DRSC04281 | – | – | 5651 | 3.31e5 | inactive |
| CG15373 | DRSC19663 | – | – | 5367 | 4.31e5 | inactive |
| Cyp4p1 | DRSC07372 | – | – | 6959 | 4.65e5 | inactive |
| Gr36c | DRSC02437 | – | – | 7877 | 4.23e5 | inactive |
| ND-B14.5B | DRSC00346 | – | – | 7346 | 4.16e5 | inactive |
| Polr3K + Tcs1 | DRSC05988 | – | – | 5504 | 4.46e5 | inactive |
| CG30031 + deltaTry + CG30025 + 1 more | DRSC21262 | – | – | 4859 | 3.20e5 | inactive |
| Ptp99A | DRSC13933 | – | – | 5464 | 3.76e5 | inactive |
| Ptp99A | DRSC13939 | – | – | 4927 | 3.44e5 | inactive |
| Ptp99A | DRSC14319 | – | – | 6307 | 3.77e5 | inactive |
| Ptp99A | DRSC14320 | – | – | 6790 | 6.00e5 | inactive |
| Ptp99A | DRSC16803 | – | – | 7167 | 5.02e5 | inactive |
| Ptp99A | DRSC22125 | – | – | 8034 | 6.59e5 | inactive |
| Ptp99A | DRSC22477 | – | – | 2595 | 2.86e5 | inactive |
| Ptp99A | DRSC23033 | – | – | 4023 | 2.56e5 | inactive |
| Spn77Bb + Spn77Bc | DRSC10689 | – | – | 7079 | 5.00e5 | inactive |
| Spn77Bb + Spn77Bc | DRSC11793 | – | – | 7138 | 4.77e5 | inactive |
| Tret1-1 | DRSC07046 | reporter ratio raised past the hit cutoff | – | 5830 | 1.99e5 | inactive |
| Tret1-1 | DRSC07048 | – | – | 5868 | 2.17e5 | inactive |
| dec | DRSC18759 | – | – | 5979 | 4.12e5 | inactive |
| dec | DRSC21477 | – | – | 8910 | 4.50e5 | inactive |
| Vps37B | DRSC12165 | – | – | 8334 | 4.70e5 | inactive |
| CG8087 | DRSC16375 | – | – | 6950 | 4.99e5 | inactive |
| UQCR-11L | DRSC22166 | – | – | 9319 | 5.31e5 | inactive |
| CG30380 | DRSC05069 | – | – | 4943 | 4.97e5 | inactive |
| CG7369 | DRSC11822 | – | – | 4487 | 2.68e5 | inactive |
| CG6689 | DRSC16095 | – | – | 8871 | 4.19e5 | inactive |
| CG10435 | DRSC14246 | – | – | 9590 | 4.37e5 | inactive |
| Cdc16 | DRSC16920 | – | – | 6471 | 2.89e5 | inactive |
| CG5280 | DRSC10498 | – | – | 5663 | 3.47e5 | inactive |
| CG5280 | DRSC22835 | reporter ratio raised past the hit cutoff | – | 2283 | 76190 | inactive |
| AsnRS-m | DRSC07010 | – | – | 6136 | 3.15e5 | inactive |
| CG5555 | DRSC15834 | – | – | 10197 | 4.71e5 | inactive |
| CG17344 | DRSC02607 | – | – | 6595 | 3.94e5 | inactive |
| wb | DRSC01375 | – | reporter ratio raised past the hit cutoff | 4764 | 2.94e5 | inactive |
| wb | DRSC03634 | – | – | 6614 | 3.21e5 | inactive |
| wb | DRSC23003 | – | – | 3535 | 2.66e5 | inactive |
| CG15909 | DRSC04977 | – | – | 7440 | 4.23e5 | inactive |
| CG2150 | DRSC15420 | – | – | 7298 | 4.26e5 | inactive |
| CG9483 | DRSC03226 | – | – | 7968 | 1.27e6 | inactive |
| CG42816 + CG42815 | DRSC11230 | – | – | 7467 | 3.94e5 | inactive |
| CG6873 | DRSC20014 | – | – | 5947 | 6.40e5 | inactive |
| hpo | DRSC06065 | – | – | 10483 | 3.66e5 | inactive |
| CG17321 | DRSC02598 | – | – | 6688 | 3.72e5 | inactive |
| AttC | DRSC06886 | – | – | 6315 | 3.39e5 | inactive |
| PH4alphaEFB | DRSC14473 | – | – | 6835 | 4.25e5 | inactive |
| PH4alphaEFB | DRSC14950 | – | – | 6079 | 4.02e5 | inactive |
| Jig | DRSC14974 | – | – | 6695 | 4.30e5 | inactive |
| DIP-eta | DRSC02342 | – | – | 7231 | 4.70e5 | inactive |
| CG32365 | DRSC10040 | – | – | 6682 | 3.79e5 | inactive |
| CG32365 | DRSC10041 | reporter ratio raised past the hit cutoff | – | 5135 | 1.94e5 | inactive |
| CG32365 | DRSC10977 | – | – | 3700 | 2.28e5 | inactive |
| Pmm2 | DRSC09780 | – | – | 6482 | 4.77e5 | inactive |
| CG6867 | DRSC20013 | – | – | 3508 | 3.44e5 | inactive |
